Some results were stated once for a whole list of compounds, not compound by compound. At least one compound was matched to its structure with a doubt left.
How the values were obtained:
Format in all cases: cell-based, human
[1] = system: A375 MART::EGFP cell line; experiment: Melan-A/MART-1 promoter-driven EGFP reporter, flow cytometry; settings: transient exposure, EGFP assayed on day 3 (FIG. 12)
[2] = system: Melan-A/MART-1 promoter EGFP reporter cell line; experiment: Melan-A/MART-1 promoter-driven EGFP reporter cell line, secondary screen of hits (FIG. 6); settings: over a dose range (FIG. 6)
Excerpt: FIG. 6 is a series of graphs showing EGFP detection of in cells treated with the indicated hits showing ability to upregulate a cell line containing a Melan-A/MART-1 promoter-driven EGFP reporter. Note that the x-axes (drug concentrations) and y-axes (EGFP fluorescent measurement) cover different ranges to best indicate the activities of individual compounds. Data from a single determination, representative of at least three confirmatory experiments, is shown.
The EGFP reporter driven by the Melan-A/MART-1 promoter represents one such orthogonal assay because it evaluates directly the effect of the compounds on Melan-A/MART-1 promoter activity independent of Melan-A/MART-1 protein expression. Compounds passing the other secondary screens, but failing this one, may affect antigen presentation by other mechanisms such as increasing the efficiency of antigen processing, enhancing MHC Class I levels, or by stabilizing the antigen/MHC complex.
As for the primary screen, 17-AAG and aphidicolin, had the largest impact on EGFP stimulation, inducing 3-fold and 5-fold increases respectively. Four additional compounds: damnacanthal, flunarizine, OBAA, and dantrolene stimulated EGFP more than 2-fold. We then tested the ability of the hit compounds to induce antigen increases in a more diverse set of tumors including melanomas and gliomas. In addition, the gp100 antigen that is expressed on melanocytes and gliomas was added to the Melan-A/MART-1 antigen expression tested in the screening cellular assay. FIG. 7 illustrates examples of the flow histograms derived from the intracellular staining used to generate the data presented in Table 10.
A1200 base pair human genomic DNA segment encompassing the Melan-A/MART-1 promoter was used to generate a construct driving expression of the EGFP reporter gene. Stable transfectants with this construct were generated in the low-antigen cell line A375 and the high-antigen line MM96L+. The EGFP expression response patterns of these cells to IFN-β and MAP kinase inhibitors recapitulates the antigen up-regulation of endogenous Melan-A/MART-1 induced by these agents.
Cells were fixed with 1% formaldehyde, permeabilized with 0.1% saponin, stained with monoclonal antibodies to melanocyte antigens. Antibodies were obtained with specificity for: MART-1 from Vector Labs (Burlingame, Calif.); gp100 HMB45 from DakoCytomation (Carpinteria, Calif.) and then visualized with goat anti-mouse FITC-conjugated secondary antibody from Invitrogen (Fredrick, Md.). The level of EGFP was determined by flow cytometry of unfixed cells that were washed and resuspended in 1×PBS.

MU89 melanoma cells = experiment: Tumor cell/T cell co-culture IL-2 ELISA (Melan-A/MART-1 specific TCR Jurkat line J-TCR-M1 as responder); settings: hits re-tested over a wider dose range (FIG. 5)
Excerpt: The assay relies on the use of an antigen-specific responder T cell line. […] The chosen TCR reacts specifically to a Melan-A/MART-1 decapeptide (26[…]35) presented by HLA-A2, with appropriate triggering of T cell activation. We then used a lentiviral vector system for transduction of this specific TCR into the J.RT3-T3.5 T cell line, a Jurkat cell derivative which fails to express endogenous surface TCR through a mutation in its beta chain.
We evaluated several candidate melanoma cell lines for the ability to stimulate the J-TCR-M1 cell line. Levels of Melan-A/MART-1 (determined by intracellular staining and flow cytometry) and corresponding levels of induced IL-2 (determined by coculture with J-TCR-M1 and IL-2 ELISA) were tested for different melanoma cell lines.
The 480 compounds were tested in six parallel 96 well plates. The first two columns (16 wells) of each plate were used for standards (8 wells), untreated controls (4 wells), and positive controls (4 wells). The other ten columns (80 wells) were used for testing compounds in separate wells. […]
The protocol for evaluation of the cytokine IL-2 was performed using a the BD OptEAI kit, human IL-2 ELISA set from BD Biosciences (San Diego, Calif.) following the manufacturer's recommendations. The absorbance 450 nm was read in a BioRad 3550 plate reader. […] IL-2 levels for experimental samples (pg/ml) were calculated from the standard curve. […]

melanomas and gliomas = experiment: Intracellular staining for Melan-A/MART-1 and gp100, melanomas and gliomas exposed to hits (Table 10); settings: in most cell lines; three days (Table 10)
Protocol: FIG. 7 is a series of graphs showing intracellular staining and flow histograms used to generate data for Table 10. All cells were stained with an antibody to gp100. Thin line represents untreated cells, bold line represents cells treated for three days with 17-AAG (1 μg/ml). Numbers represent geometric mean of flow histograms.
A further orthogonal secondary screen is the measurement of Melan-A/MART-1 and gp100 in additional melanoma cell lines and gliomas in response to the primary hit candidates. […] If the compounds of interest increase antigen levels in multiple melanoma cell lines and two gliomas, the effects of the compounds are clearly not limited to a single melanoma cell type.
As for the primary screen, 17-AAG and aphidicolin, had the largest impact on EGFP stimulation, inducing 3-fold and 5-fold increases respectively. Four additional compounds: damnacanthal, flunarizine, OBAA, and dantrolene stimulated EGFP more than 2-fold. We then tested the ability of the hit compounds to induce antigen increases in a more diverse set of tumors including melanomas and gliomas. […]
Cells were fixed with 1% formaldehyde, permeabilized with 0.1% saponin, stained with monoclonal antibodies to melanocyte antigens. […] The level of EGFP was determined by flow cytometry of unfixed cells that were washed and resuspended in 1×PBS.

| SMILES | Minimum exposure required to induce significant increases in Melan-A/MART-1 promoter EGFP reporter levels [1] [h] | EGFP stimulation (Melan-A/MART-1 promoter reporter) [2] | IL-2 stimulation in repeat of the tumor T cell co-culture IL-2 ELISA (MU89 melanoma cells) | Protein increase (Melan-A/MART-1, gp100 intracellular staining) (melanomas and gliomas) [fold] |
| --- | --- | --- | --- | --- |
| CO[C@H]1/C=C\C=C(/C)C(=O)NC2=CC(=O)C(NCCN3CCCC3)=C(C[C@@H](C)C[C@H](OC)[C@H](O)[C@@H](C)/C=C(\C)[C@@H]1OC(N)=O)C2=O [17-AEP] | ≥ 24 | – | – | – |
| COc1c(C=O)c(O)cc2c1C(=O)c1ccccc1C2=O [Damnacanthal] | – | more than 2 fold | – | – |
| O=C1CN(/N=C/c2ccc(-c3ccc([N+](=O)[O-])cc3)o2)C(O)=N1 [Dantrolene] | – | more than 2 fold | – | – |
| Fc1ccc(C(c2ccc(F)cc2)N2CCN(C/C=C/c3ccccc3)CC2)cc1 [Flunarizine] | – | more than 2 fold | – | – |
| CCCCCCCCCCCCCCCCCCc1ccc(C(=O)C=CC(=O)O)cc1 [OBAA, 3-(4-octadecyl)benzoylacrylic acid] | – | more than 2 fold | 1.5-2 fold | > 1.5 |
